## Assay results

The results are deposited in PubChem (AID463188; University of Pittsburgh Molecular Library Screening Center, 2010).

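A z-score from a phospho-tyrosine peptide counterscreen run alongside a FRET kinase assay of purified Hck-YEEI bound to Nef, read after timed room-temperature incubations. Compounds were tested at a single concentration of 10 µM. The number is a z-score for the p-Tyr peptide counterscreen; higher values mean a stronger counterscreen signal, and values above 3 mark a compound as likely interfering.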

Common to all entries: measured here: p-Tyr peptide counterscreen. Part of the compounds only, not a random draw; the main read-out is not listed here.

| compound | z-score |
|---|---|
| `Fc1cccc(/C=N/Nc2ncnc3nc[nH]c23)c1` | 0.2192 |
| `Cc1c(Br)c(=O)oc2c(Br)c(O)ccc12` | 38.81 |
| `COc1ccc(CCn2c(SCC(=O)Nc3cc(C)on3)nc3ccsc3c2=O)cc1OC` | 0.8486 |
| `Cc1cc(C)c2c(N)c(C(=O)N/N=C/c3cccnc3)sc2n1` | 1.722 |
| `CCOC(=O)c1c(NC(=O)C2CCCO2)sc(C(=O)OC(C)(C)C)c1C` (configuration not stated) | 1.816 |
| `C(=N\Nc1ccccn1)/c1c[nH]c2ccccc12` | -0.3971 |
| `O=[N+]([O-])c1ccccc1NC(=S)N/N=C/c1ccc(O)c(O)c1` | -1.156 |
| `Cc1ccc(Oc2ccc(-c3nc(N)nc(N)n3)cc2)cc1C` | 3.03 |
| `COc1ccc(NS(=O)(=O)c2cccc(C(=O)N/N=C(\C)c3ccc(-n4ccnc4)cc3)c2)cc1` | 1.155 |
| `O=C(Nc1cccc(-c2nc3ccccc3[nH]2)c1)c1cccc(NC(=O)c2ccco2)c1` | 1.839 |
| `O=C(CSc1nc2ccccc2n1CCc1ccccc1)c1ccc(O)c(O)c1` | 1.25 |
| `O=C(CCc1ccc(O)cc1)N/N=C/c1coc2ccccc2c1=O` | -1.98 |
| `COc1cc(NS(=O)(=O)c2ccc(NC(=S)NC(=O)c3sc4ccccc4c3Cl)cc2)nc(OC)n1` | 0.8101 |
| `CCCCC(CC)Cn1c2nc3ccccc3nc2c2c(=N)oc(C)nc21` (configuration not stated) | 7.456 |
| `Cc1ccc(NC(=O)COC(=O)/C=C/c2ccc(Br)o2)cc1S(=O)(=O)N(C)C` | -0.9666 |
| `CN1C(=O)C(=Cc2ccc(Sc3ccccc3)o2)C(=O)N(C)C1=O` | 0.5622 |
| `Nc1c(C(=O)NCCN2CCOCC2)c2nc3ccccc3nc2n1Cc1ccco1` | 67.17 |
| `O=C1CCCC2=C1C(c1cccc(O)c1)c1c(ccc3ncccc13)N2` (configuration not stated) | 14.06 |
| `CCc1nnc(NS(=O)(=O)c2ccc(N=Cc3c(O)n(-c4ccc(Cl)cc4)c(=O)[nH]c3=O)cc2)s1` | -1.496 |
| `CCc1cc2c(C)cc(=O)oc2cc1OC(=O)C1CCCN1C(=O)OC(C)(C)C` (configuration not stated) | 24.95 |
| `COc1cc(-c2cc(=O)c3c(O)c(OC)c(OC)c(O)c3o2)ccc1O` | -0.9026 |
| `N#C/C(=C\c1ccccc1OCc1ccc(C(=O)O)cc1)C(=O)Nc1ccc(O)cc1` | 0.1053 |
| `Fc1ccccc1/C=N/Nc1ncnc2nc[nH]c12` | 0.2494 |
| `CC1CCC2(CC1)NC(=O)N(CC(=O)Nc1sc3c(c1C(N)=O)CCC3)C2=O` (configuration not stated) | 0.4691 |
| `CC(=O)c1cccc(NC(=O)CC2S/C(=N/N=C/c3ccccc3)NC2=O)c1` (configuration not stated) | -0.1162 |
| `CCCn1c(NC(=O)c2cccc(S(=O)(=O)N3CCCC3)c2)nc2ccccc21` | -0.9469 |
| `Nc1c2c(=O)oc(-c3ccccc3)cc2nn1-c1ccccc1` | 2.23 |
| `Cc1nc2ccc(NC(=O)c3cc(S(=O)(=O)N(C)c4ccccc4)ccc3Cl)cc2s1` | -1.679 |

Once more, the final 3:

CCCn1c(NC(=O)c2cccc(S(=O)(=O)N3CCCC3)c2)nc2ccccc21 gave z-score -0.9469.
Nc1c2c(=O)oc(-c3ccccc3)cc2nn1-c1ccccc1 gave z-score 2.23.
Cc1nc2ccc(NC(=O)c3cc(S(=O)(=O)N(C)c4ccccc4)ccc3Cl)cc2s1 gave z-score -1.679.